Where two headings read alike, the source gives them in different places. Some entries share one result that the patent states for a list of compounds. At least one structure is not confirmed: it was looked up by name or label, or the drawing left a doubt.
Tested on: ERα and/or ERβ
Assay: ERα/ERβ transactivation assay in transfected CHO cells (luciferase reporter), estrogenicity and anti-estrogenicity
Assay type: cell-based, human
[1] = read-out: agonist or antagonist EC50 (determined to be active); active against either or both ERα and ERβ; agonist or antagonist value
[2] = active against either or both ERα and ERβ; agonist or antagonist value; read-out: agonist or antagonist EC50 (determined to be active)

SMILES | EC50 [1] | EC50 [2]
O=C(c1ccc(O)cc1)c1c(-c2ccc(O)cc2)nn(C2CCC2)c1-c1ccc(O)cc1 [3,5-bis(4-hydroxyphenyl)-1-cyclobutylpyrazol-4-yl 4-hydroxyphenyl ketone] | ≤ 4 µM | –
Cc1ccccc1-n1nc(-c2ccc(O)cc2)c(-c2ccccc2)c1-c1ccc(O)cc1 [4-[5-(4-hydroxyphenyl)-1-(2-methylphenyl)-4-phenylpyrazol-3-yl]phenol] | ≤ 4 µM | –
CCc1c(-c2ccc(O)cc2)nn(-c2ccc(C(C)C)cc2)c1-c1ccc(O)cc1 [4-{4-ethyl-5-(4-hydroxyphenyl)-1-[4-(methyethyl)phenyl]pyrazol-3-yl}phenol] | ≤ 4 µM | –
CCc1c(-c2ccc(O)cc2)nn(C)c1C(c1ccccc1)c1ccccc1 [4-[5-(diphenylmethyl)-4-ethyl-1methylpyrazol-3-yl]phenol] | ≤ 4 µM | –
CCc1ccccc1-n1nc(-c2ccc(O)cc2)c(-c2ccccc2)c1-c1ccc(O)cc1 [4-[(2-ethyphenyl-5-(4-hydroxyphenyl)-4-phonypyrazol-3-yl]phenol] | ≤ 4 µM | –
CCc1c(-c2ccc(O)cc2)nn(-c2cccc(Cl)c2)c1-c1ccc(O)cc1 [4-[1-(3-chlorophenyl)-4-ethyl-5-(4-hydroxyphenyl)pyrazol-3-yl]phenol] | ≤ 4 µM | –
Oc1ccc(-c2nn(-c3cc(C(F)(F)F)ccc3Cl)c(-c3ccc(O)cc3)c2-c2ccc(O)cc2)cc1 [4-{3,4-bis(4-hydroxyphenyl)-1-[2-chloro-5-(trifluoromethyl)phenyl]pyrazol-5-yl}phenol] | ≤ 4 µM | –
CCc1c(-c2ccc(O)cc2)nn(C2CCCC2)c1-c1ccc(O)cc1 [4-[1-cyclopentyl-4-ethyl-5-(4-hydroxyphenyl)pyrazol-3-yl]phenol] | ≤ 4 µM | –
Oc1ccc(-c2nn(-c3ccc(OC(F)(F)F)cc3)c(-c3ccc(O)cc3)c2-c2ccc(O)cc2)cc1 [4-[3,4-bis(4-hydroxyphenyl)-1-[4-(trifluoromethoxy)phenyl]pyrazol-5-yl]phenol] | ≤ 4 µM | –
Oc1ccc(-c2nn(-c3ccc(I)cc3)c(-c3ccc(O)cc3)c2-c2ccc(O)cc2)cc1 [4-[3,5-bis(4-hydroxyphenyl)-1-(4-iodophenyl)pyrazol-4-yl]phenol] | ≤ 4 µM | –
Oc1ccc(-c2nn(-c3ccccn3)c(-c3ccc(O)cc3)c2-c2ccc(O)cc2)cc1 [4-[3,5-bis(4-hydroxyphenyl)-1-(2-pyridyl)pyrazolyl-4-yl]phenol] | ≤ 4 µM | –
Oc1ccc(-c2nn(-c3ccc(Cl)c(Cl)c3)c(-c3ccc(O)cc3)c2-c2ccccc2)cc1 [4-[1-(3,4-dichlorophenyl)-5-(4-hydroxyphenyl)-4-phenylpyrazol-3-yl]phenol] | ≤ 4 µM | –
Cc1ccc(-n2nc(-c3ccc(O)cc3)c(-c3ccccc3)c2-c2ccc(O)cc2)nn1 [4-[3(4-hydroxyphenyl-1-(6-methylpyridazin-3-yl)-4-phenylpyrazol-5-yl]phenol] | ≤ 4 µM | –
CCc1c(-c2ccc(O)cc2)nn(-c2ccc(Cl)cc2)c1-c1ccc(O)cc1 [4-[1-(4-chlorophenyl)-4-ethyl-5-(4-hydroxyphenyl)pyrazol-3-yl]phenol] | ≤ 4 µM | –
CCc1c(-c2ccc(O)cc2)nn(-c2ccc(O)cc2)c1C [4-[4-ethyl-3-(4-hydroxyphenyl)-5-methylpyrazolyl]phenol] | – | ≤ 4 µM
CCc1c(-c2ccc(OC(C)=O)cc2)nn(C)c1-c1ccc(OC(C)=O)cc1 [4-[5-(4-acetyloxyphenyl)-4-ethyl-1-methypyrazol-3-yl]phenyl acetate] | ≤ 4 µM | –
Cc1cc(Cl)ccc1-n1nc(-c2ccc(O)cc2)c(Cc2ccccc2)c1-c1ccc(O)cc1 [4-[1-(4-chloro-2-methylphenyl)-5-(4-hydroxyphenyl)-4-benzylpyrazol-3-yl]phenol] | ≤ 4 µM | –
Oc1ccc(-c2nn(-c3ccc(Cl)cc3)c(-c3ccc(O)cc3)c2Cc2ccccc2)cc1 [4-[1-(4-chlorophenyl)-5-(4-hydroxyphenyl)-4-benzylpyrazol-3-yl]phenol] | ≤ 4 µM | –
Cc1cc(Cl)ccc1-n1nc(-c2ccc(O)cc2)c(-c2ccccc2)c1-c1ccc(O)cc1 [4-[1-(4-chloro-2-methylphenyl)-5-(4-hydroxyphenyl)-4-phenylpyrazol-3-yl]phenol] | ≤ 4 µM | –
Oc1ccc(-c2nn(-c3cccc(Cl)c3)c(-c3ccc(O)cc3)c2Cc2ccccc2)cc1 [4-[1-(3-chlorophenyl)-5-(4-hydroxyphenyl)-4-benzylpyrazol-3-yl]phenol] | ≤ 4 µM | –
CCc1c(-c2ccc(O)cc2)nn(CC(=O)c2cccc(O)c2)c1-c1ccc(O)cc1 [2-[3,5-bis(4-hydroxyphenyl)-4-ethypyrazolyl]-1-(3-hydroxyphenyl)ethan-1-one] | ≤ 4 µM | –
CCc1c(-c2ccc(O)cc2)nn(-c2ccccc2C(F)(F)F)c1-c1ccc(OC(C)=O)cc1 [4-{4-ethyl-3-(4-hydroxyphenyl)-1-[2-(trifluoromethyl)phenyl]pyrazol-5-yl}pheny acetate] | ≤ 4 µM | –
Oc1ccc(-c2cc(-c3ccc(O)cc3)n(-c3ccccc3C(F)(F)F)n2)cc1 [4-{3-(4-hydroxyphenyl)-1-[2-(trifluoromethyl)phenyl]pyrazol-5-yl}phenol] | ≤ 4 µM | –
Cc1ccc(-n2nc(-c3ccc(O)cc3)c(-c3ccc(O)cc3)c2-c2ccc(O)cc2)cc1 [4-[3,5-bis(4-hydroxyphenyl)-1-(4-methylphenyl)pyrazol-4-yl]phenol] | ≤ 4 µM | –

SMILES | EC50 [1] | EC50 [2]
CCc1c(-c2ccc(O)cc2)nn(CC(=O)c2ccccc2O)c1-c1ccc(O)cc1 [2-[3,5-bis(4-hydroxyphenyl)-4-ethylpyrazolyl]-1-(2-hydroxphenyl)ethan-1-one] | ≤ 4 µM | –
CCc1c(-c2ccc(O)cc2)nn(-c2cc(C(F)(F)F)cc(C)n2)c1-c1ccc(O)cc1 [4-{4-ethyl-5-(4-hydroxyphenyl)-1-[6-methyl-4-(trifluoromethyl)(2-pyridyl)]pyrazol-3-yl}phenol] | ≤ 4 µM | –
Oc1ccc(-c2c3c(nn2C2CCC2)-c2cccc(O)c2CC3)cc1 [2-cyclobutyl-3-(4-hydroxyphenyl)-2,4,5-trihydrobenzo[g]1H-indazol-6-ol] | ≤ 4 µM | –
CCc1c(-c2ccc(O)cc2)nn(CC(C)C)c1-c1ccc(O)cc1 [4-[4-ethyl-5-(4-hydroxyphenyl)-1-(2-methypropy)pyrazol-3-yl]phenol] | ≤ 4 µM | –
Oc1ccc(-c2nn(Cc3cccc(O)c3)c(-c3ccc(O)cc3)c2Cc2ccccc2)cc1 [3-{[3,5-bis(4-hydroxyphenyl)-4-benzylpyrazolyl]methyl}phenol] | – | ≤ 4 µM
CCc1c(-c2ccc(O)cc2)nn(C2CCCCC2)c1-c1ccc(O)cc1 [4-[1-cyclohexyl-4-ethyl-5-(4-hydroxyphenyl)pyrazol-3-yl]phenol] | ≤ 4 µM | –
CCc1c(-c2ccc(O)cc2)nn(-c2ncc(C(F)(F)F)cc2Cl)c1-c1ccc(O)cc1 [4-{1-[3-chloro-5-(trifluoromethyl)(2-pyridyl)]-4-ethyl-5-(4-hydroxyphenyl)pyrazol-3-yl}phenol] | ≤ 4 µM | –
Cn1nc(-c2ccc(O)cc2)c2ccc3ccc(O)cc3c21 [3-(4-hydroxyphenyl)-1-methylbenzo[g]1H-indazol-8-ol] | ≤ 4 µM | –
Oc1ccc(-c2nn(-c3ccc(Cl)cc3)c(-c3ccc(O)cc3)c2-c2ccc(O)cc2)cc1 [4-[3,5-bis(4-hydroxyphenyl)-1-(4-chlorophenyl)pyrazol-4-yl]phenol] | ≤ 4 µM | –
Oc1ccc(-c2nn(-c3cc(C(F)(F)F)cc(C(F)(F)F)c3)c(-c3ccc(O)cc3)c2-c2ccccc2)cc1 [4-{1-[3,5-bis(trifluoromethyl)phenyl]-5-(4-hydroxyphenyl)-4-phenylpyrazol-3-yl}phenol] | ≤ 4 µM | –
CCc1c(-c2ccc(O)cc2)nn(C2CCC2)c1-c1ccc(O)cc1 [4-[1-cyclobutyl-4-ethyl-5-(4-hydroxyphenyl)pyrazol-3-yl]phenol] | ≤ 4 µM | –
Oc1ccc(-c2c3c(nn2C2CCC2)-c2ccc(O)cc2CCC3)cc1 [2-cyclobutyl-3-(4-hydroxyphenyl)-4,5,6-trihydrobenzo[c]pyrazolo[4,3-a][7]annulen-8-ol] | ≤ 4 µM | –
CCCC(=O)Oc1ccc(-c2nn(C3CCC3)c(-c3ccc(OC(=O)CCC)cc3)c2CC)cc1 [4-[5-(4-butanoyoxyphenyl)-1-cyclobutyl-4-ethylpyrazol-3-yl]pheny butanoate] | ≤ 4 µM | –
Oc1ccc(-c2nn(-c3ccc(O)cc3)c(-c3ccc(O)cc3)c2-c2ccc(O)cc2)cc1 [4-[1,3,5-tris(4-hydroxyphenyl)pyrazolyl-4-yl]phenol] | ≤ 4 µM | –
Cn1nc(-c2ccc(O)cc2)c2c1-c1ccc(O)cc1C2 [3-(4-hydroxyphenyl)-1-methylndeno[2,3-d]pyrazol-6-ol] | – | ≤ 4 µM
Cc1c(-c2ccc(O)cc2)nn(-c2ccc(S(C)(=O)=O)cc2)c1-c1ccc(O)cc1 [1-[3,5-bis(4-hydroxyphenyl)-4-methylpyrazolyl]-4-(methylsulfonyl)benzene] | – | ≤ 4 µM
Oc1ccc(-c2c3c(nn2C2CCC2)-c2ccc(O)cc2CC3)cc1 [2-cyclobutyl-3-(4-hydroxyphenyl)-2,4,5-trihydrobenzo[g]1H-indazol-7-ol] | ≤ 4 µM | –
CCc1c(-c2ccc(O)cc2)nn(-c2cc(C(F)(F)F)ccc2Cl)c1-c1ccc(O)cc1 [4-{1-[2-chloro-5-(trifluoromethyl)phenyl]-4-ethyl-5-(4-hydroxyphenyl)pyrazol-3-yl}phenol] | ≤ 4 µM | –
Cc1cccc(-n2nc(-c3ccc(O)cc3)c(-c3ccccc3)c2-c2ccc(O)cc2)c1C [4-[1-(2,3-dimethyphenyl)-5-(4-hydroxyphenyl)-4-phenylpyrazol-3-yl]phenol] | ≤ 4 µM | –
CCc1c(-c2ccc(O)cc2)nn(-c2ccccc2C(F)(F)F)c1-c1ccc(O)cc1 [4-{4-ethyl-5-(4-hydroxyphenyl)-1-[2-(trifluoromethyl)phenyl]pyrazol-3-yl}phenol] | ≤ 4 µM | –
CCc1ccccc1-n1nc(-c2ccc(O)cc2)c(-c2ccc(O)cc2)c1-c1ccc(O)cc1 [4-[3,4-bis(4-hydroxyphenyl)-1-(2-ethylphenyl)pyrazol-5-yl]phenol] | ≤ 4 µM | –
CCc1c(-c2ccc(O)cc2)nn(-c2ccc(Cl)cc2Cl)c1-c1ccc(O)cc1 [4-[1-(2,4-dichlorophenyl)-4-ethyl-5(4-hydroxyphenyl)pyrazol-3-yl]phenol] | ≤ 4 µM | –
Oc1ccc(-c2nn(C3CCC3)c(-c3ccc(O)cc3)c2Br)cc1 [4-[bromo-1-cyclobutyl-5(4-hydroxyphenyl)pyrazol-3-yl]phenol] | ≤ 4 µM | –

From patent USRE39708E1, “Estrogen receptor modulators” (Chiron Corporation, priority 1998, dated 2007)
